Data: the supplement of paper PMC10849652
The other results are listed elsewhere or left out.

The chains behind the UniProt entries cited, without tags or fusion partners. Where a name states a change or a piece, a line headed by the entry shows the natural chain unless it says otherwise.
UniProt Q68DK7: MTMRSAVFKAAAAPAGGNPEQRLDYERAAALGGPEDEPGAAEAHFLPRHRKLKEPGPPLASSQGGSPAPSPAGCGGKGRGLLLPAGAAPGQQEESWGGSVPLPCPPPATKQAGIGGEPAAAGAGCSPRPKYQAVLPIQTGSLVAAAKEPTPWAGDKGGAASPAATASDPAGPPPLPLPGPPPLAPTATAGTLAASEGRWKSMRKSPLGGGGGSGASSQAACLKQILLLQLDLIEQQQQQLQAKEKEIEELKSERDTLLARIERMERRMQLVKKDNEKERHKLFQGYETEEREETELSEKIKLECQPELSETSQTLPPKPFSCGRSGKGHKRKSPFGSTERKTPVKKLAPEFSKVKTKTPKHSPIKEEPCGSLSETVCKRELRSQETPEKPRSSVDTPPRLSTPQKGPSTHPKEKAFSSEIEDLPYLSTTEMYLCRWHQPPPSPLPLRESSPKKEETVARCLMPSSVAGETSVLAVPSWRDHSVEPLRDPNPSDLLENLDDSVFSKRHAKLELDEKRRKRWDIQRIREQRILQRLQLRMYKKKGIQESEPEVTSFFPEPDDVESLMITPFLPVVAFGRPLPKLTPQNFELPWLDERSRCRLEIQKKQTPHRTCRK
UniProt P43246, whole entry, looked up: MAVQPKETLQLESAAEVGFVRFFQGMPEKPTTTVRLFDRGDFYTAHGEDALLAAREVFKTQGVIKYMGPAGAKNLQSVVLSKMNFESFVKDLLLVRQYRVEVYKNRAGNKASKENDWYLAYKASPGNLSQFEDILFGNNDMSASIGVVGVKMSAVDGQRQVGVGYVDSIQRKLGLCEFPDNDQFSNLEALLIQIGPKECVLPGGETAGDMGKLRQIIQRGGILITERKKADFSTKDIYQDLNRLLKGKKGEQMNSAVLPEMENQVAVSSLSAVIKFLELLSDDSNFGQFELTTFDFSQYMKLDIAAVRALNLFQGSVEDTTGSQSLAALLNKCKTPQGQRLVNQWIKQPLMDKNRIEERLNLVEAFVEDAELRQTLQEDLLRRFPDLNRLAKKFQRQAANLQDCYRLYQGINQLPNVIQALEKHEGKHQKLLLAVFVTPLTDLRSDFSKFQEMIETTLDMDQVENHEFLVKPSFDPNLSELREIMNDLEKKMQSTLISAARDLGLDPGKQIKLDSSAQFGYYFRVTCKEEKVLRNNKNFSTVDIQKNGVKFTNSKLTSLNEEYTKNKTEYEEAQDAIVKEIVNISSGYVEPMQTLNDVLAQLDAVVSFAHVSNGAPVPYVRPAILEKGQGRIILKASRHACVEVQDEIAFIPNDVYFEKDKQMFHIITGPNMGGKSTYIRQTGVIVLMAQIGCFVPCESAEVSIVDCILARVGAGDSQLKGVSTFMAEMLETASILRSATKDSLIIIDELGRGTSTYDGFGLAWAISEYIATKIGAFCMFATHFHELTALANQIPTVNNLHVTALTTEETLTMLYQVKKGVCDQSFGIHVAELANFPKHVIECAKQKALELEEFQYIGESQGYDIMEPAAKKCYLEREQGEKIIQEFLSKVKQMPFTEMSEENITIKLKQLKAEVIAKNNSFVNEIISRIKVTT
UniProt P52701: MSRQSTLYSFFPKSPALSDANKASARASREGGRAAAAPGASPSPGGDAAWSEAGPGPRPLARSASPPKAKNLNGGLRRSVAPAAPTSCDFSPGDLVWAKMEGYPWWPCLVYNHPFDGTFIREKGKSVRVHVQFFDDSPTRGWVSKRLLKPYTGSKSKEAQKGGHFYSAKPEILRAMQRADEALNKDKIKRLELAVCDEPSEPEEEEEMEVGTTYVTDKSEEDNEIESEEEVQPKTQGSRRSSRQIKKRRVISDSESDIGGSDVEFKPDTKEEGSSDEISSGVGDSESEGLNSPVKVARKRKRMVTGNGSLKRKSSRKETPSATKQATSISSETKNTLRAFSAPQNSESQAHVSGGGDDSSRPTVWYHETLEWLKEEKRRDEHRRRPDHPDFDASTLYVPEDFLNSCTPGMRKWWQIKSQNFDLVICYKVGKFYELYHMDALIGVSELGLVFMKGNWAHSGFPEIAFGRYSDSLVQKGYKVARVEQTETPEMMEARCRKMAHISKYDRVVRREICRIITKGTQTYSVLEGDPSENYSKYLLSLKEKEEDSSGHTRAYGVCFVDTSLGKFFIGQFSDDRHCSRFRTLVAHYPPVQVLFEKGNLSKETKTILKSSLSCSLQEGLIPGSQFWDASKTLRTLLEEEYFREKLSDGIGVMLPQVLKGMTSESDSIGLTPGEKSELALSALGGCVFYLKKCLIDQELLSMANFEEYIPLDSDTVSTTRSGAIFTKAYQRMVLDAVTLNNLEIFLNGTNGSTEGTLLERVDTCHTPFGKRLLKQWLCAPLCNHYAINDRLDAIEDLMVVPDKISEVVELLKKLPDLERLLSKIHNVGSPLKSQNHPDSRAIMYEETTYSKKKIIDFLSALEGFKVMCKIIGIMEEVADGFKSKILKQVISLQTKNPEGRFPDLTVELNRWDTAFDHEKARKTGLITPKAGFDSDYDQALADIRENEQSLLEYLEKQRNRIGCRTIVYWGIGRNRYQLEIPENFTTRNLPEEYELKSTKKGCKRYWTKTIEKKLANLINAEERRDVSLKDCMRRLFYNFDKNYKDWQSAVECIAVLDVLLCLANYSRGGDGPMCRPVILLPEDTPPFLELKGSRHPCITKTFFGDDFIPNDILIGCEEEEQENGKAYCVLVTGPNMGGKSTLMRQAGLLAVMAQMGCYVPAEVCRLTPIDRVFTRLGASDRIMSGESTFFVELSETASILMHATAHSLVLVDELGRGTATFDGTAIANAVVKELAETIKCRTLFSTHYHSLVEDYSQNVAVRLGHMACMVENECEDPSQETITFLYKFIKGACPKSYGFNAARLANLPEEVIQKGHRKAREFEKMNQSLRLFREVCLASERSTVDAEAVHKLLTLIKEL
UniProt P58546, whole entry, looked up: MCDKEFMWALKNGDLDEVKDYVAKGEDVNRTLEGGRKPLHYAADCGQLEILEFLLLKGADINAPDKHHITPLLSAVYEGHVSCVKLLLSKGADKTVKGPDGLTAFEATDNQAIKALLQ
UniProt P42898: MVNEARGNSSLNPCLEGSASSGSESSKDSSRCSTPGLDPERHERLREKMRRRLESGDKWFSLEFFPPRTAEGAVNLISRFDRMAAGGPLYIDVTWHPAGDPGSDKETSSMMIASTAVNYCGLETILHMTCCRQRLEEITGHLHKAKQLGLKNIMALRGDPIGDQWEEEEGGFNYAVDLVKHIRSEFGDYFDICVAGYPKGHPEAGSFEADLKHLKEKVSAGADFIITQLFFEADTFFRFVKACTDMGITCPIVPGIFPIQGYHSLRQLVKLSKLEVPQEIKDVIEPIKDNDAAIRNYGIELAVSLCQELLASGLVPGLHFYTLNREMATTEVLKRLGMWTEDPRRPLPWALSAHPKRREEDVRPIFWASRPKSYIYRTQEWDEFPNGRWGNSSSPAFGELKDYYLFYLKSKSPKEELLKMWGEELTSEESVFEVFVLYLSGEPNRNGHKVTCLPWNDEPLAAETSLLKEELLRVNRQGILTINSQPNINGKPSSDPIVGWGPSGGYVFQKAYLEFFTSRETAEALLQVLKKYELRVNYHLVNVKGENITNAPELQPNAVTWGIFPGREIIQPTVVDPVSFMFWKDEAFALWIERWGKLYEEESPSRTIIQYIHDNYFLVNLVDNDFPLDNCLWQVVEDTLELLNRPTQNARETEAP
UniProt P42285: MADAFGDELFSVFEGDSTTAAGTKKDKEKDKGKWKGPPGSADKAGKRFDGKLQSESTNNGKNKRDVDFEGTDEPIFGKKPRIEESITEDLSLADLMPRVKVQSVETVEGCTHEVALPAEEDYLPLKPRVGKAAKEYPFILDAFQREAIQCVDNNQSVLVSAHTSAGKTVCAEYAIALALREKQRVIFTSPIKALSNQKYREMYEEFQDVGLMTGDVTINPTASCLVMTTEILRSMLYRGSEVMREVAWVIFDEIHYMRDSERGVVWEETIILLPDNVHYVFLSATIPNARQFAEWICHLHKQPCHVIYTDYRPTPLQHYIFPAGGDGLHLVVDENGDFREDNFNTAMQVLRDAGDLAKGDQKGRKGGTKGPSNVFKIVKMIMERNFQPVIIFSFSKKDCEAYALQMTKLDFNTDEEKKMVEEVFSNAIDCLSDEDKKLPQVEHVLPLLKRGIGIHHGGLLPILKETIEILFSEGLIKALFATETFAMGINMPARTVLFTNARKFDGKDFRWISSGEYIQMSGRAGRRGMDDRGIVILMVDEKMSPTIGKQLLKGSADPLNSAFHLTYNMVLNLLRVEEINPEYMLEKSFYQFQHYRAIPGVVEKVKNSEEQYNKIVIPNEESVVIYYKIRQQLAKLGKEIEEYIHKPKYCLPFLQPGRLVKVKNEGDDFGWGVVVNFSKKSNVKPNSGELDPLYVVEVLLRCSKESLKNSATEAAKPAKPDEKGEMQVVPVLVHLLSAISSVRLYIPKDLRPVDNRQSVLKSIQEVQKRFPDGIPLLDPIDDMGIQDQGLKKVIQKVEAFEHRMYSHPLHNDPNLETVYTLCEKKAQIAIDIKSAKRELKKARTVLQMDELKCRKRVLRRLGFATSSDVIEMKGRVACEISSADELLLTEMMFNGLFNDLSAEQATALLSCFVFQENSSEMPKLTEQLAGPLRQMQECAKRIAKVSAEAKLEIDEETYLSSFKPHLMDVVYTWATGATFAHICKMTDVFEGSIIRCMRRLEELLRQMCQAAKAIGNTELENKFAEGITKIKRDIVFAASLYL
UniProt Q9H019: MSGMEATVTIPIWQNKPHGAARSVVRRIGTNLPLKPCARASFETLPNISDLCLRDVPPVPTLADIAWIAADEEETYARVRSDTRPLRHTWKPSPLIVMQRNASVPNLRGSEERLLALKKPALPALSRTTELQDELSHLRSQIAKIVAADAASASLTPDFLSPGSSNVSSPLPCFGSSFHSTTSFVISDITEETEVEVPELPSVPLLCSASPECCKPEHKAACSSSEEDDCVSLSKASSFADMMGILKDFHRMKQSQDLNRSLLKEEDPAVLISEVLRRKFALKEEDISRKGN
UniProt P03891, whole entry, looked up: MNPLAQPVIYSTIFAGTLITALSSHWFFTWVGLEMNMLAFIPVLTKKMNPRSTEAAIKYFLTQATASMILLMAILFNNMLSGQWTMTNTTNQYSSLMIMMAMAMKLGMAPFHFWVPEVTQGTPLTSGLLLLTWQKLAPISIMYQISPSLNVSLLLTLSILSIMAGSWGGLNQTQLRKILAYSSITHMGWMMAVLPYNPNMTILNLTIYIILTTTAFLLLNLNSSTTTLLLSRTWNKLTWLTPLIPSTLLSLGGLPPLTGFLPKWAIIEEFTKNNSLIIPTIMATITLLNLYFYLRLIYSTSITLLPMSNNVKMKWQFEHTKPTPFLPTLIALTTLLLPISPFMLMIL
UniProt P82909: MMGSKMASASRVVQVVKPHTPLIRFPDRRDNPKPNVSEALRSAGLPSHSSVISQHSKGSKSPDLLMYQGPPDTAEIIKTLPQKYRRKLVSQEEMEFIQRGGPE
UniProt P00156: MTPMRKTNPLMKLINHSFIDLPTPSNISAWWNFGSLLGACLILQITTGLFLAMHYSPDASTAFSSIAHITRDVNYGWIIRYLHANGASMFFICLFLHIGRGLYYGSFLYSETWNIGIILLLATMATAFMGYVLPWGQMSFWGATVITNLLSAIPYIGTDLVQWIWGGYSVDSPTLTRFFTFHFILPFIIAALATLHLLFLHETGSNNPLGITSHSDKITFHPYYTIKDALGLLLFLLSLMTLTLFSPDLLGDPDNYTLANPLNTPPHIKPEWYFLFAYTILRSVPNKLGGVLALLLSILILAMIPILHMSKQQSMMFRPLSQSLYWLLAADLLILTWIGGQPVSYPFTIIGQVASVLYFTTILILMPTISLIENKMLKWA
UniProt Q9Y2Z2: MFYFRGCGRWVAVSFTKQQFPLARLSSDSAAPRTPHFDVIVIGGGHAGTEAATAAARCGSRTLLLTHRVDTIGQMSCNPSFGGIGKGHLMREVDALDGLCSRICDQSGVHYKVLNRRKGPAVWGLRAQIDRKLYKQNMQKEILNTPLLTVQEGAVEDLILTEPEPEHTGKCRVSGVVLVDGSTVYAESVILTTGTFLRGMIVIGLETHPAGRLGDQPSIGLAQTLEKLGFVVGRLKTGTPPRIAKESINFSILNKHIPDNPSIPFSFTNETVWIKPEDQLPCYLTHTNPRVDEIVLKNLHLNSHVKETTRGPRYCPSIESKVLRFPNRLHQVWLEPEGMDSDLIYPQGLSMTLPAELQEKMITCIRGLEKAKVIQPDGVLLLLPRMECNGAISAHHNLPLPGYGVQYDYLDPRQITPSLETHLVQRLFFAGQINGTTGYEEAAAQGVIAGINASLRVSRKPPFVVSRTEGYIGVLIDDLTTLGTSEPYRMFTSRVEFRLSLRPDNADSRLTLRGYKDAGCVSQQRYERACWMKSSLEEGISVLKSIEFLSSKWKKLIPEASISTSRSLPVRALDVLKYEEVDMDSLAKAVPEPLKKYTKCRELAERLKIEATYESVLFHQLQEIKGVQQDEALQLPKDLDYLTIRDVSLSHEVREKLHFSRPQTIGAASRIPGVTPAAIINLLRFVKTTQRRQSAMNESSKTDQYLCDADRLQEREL

Key:
Test in all cases: log2 fold change, soluble protein after heating vs DMSO (PISA); higher = thermal stabilisation; K562 lysate, 10 uM; active = over 0.2 and 3.5 SD of the protein, either way, in both replicates (recomputed)
erlotinib = compound: C#Cc1cccc(Nc2ncnc3cc(OCCOC)c(OCCOC)cc23)c1 [erlotinib]
Method in brief: (§1)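 A 30 min treatment with 10 μM compound was applied to crude K562 extract at 1 mg/mL protein in PBS pH 7.4 with 1 mM MgCl2. Heating for 3 min spanned 48°C-58°C, after which aliquots were pooled, adjusted to 0.5% NP-40 at 4°C and spun at 21,000xg for 90 min. TMTpro 16plex LC-MS/MS of the supernatant, with channel sums equalised, gave values recorded as log-two fold change in thermal stability against solvent controls, from duplicates.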

[1] = compound: C/C(=N\NC(=O)C1=CC(=CC=C1)S(=O)(=O)N2CCOCC2)/C3=C(C=CC(=C3)Cl)O
Method in brief: as §1

[2] = compound: C1=CC(=CC=C1C2=NC3=C(N2)C=C(C=C3)C(=O)N)OC4=CC=C(C=C4)Cl
Method in brief: as §1

[3] = compound: C1=CC2=C(C=CC(=C2)/C=C\3/C(=O)NC(=NCC4=CC=CS4)S3)N=C1
Method in brief: as §1

[4] = compound: C1=CC2=NC=CN=C2C=C1/C=C/3\C(=O)NC(=O)S3
Method in brief: as §1

[5] = compound: C1=CC=C(C=C1)C2=NC(=C(N2)C3=CC=NC=C3)C4=CC(=C(C=C4)Cl)O
Method in brief: as §1

[6] = compound: C1=CC=C2C(=C1)C3=NNC4=CC=CC(=C43)C2=O
Method in brief: as §1

[7] = compound: C1CCN(C1)C(=O)NC2=CC=CC(=C2)NC3=NC=C(C(=N3)NCCC4=CN=CN4)Br
Method in brief: as §1

[8] = compound: C1CN(CCC1(CC2=CC=C(C=C2)Cl)N)C3=NC=NC4=C3C=CN4
Method in brief: as §1

IRAK-1-4 Inhibitor I = compound: C1COCCN1CCN2C3=CC=CC=C3N=C2NC(=O)C4=CC(=CC=C4)[N+](=O)[O-] [IRAK-1-4 Inhibitor I]
Method in brief: as §1

Measured: log2 fold change

MRPL55 isoform 2 (UniProt Q7Z7F7)
inactive: erlotinib 0.007 | [1] -0.364 | [2] 0.009 | [3] 0.008 | [4] -0.085 | [5] -0.021 | [6] 0.031 | [7] -0.07 | [8] 0.038 | IRAK-1-4 Inhibitor I 0.037

MRPS26 (UniProt Q9BYN8)
inactive: erlotinib 0.144 | [1] -0.04 | [2] -0.198 | [3] 0.026 | [4] -0.094 | [5] 0.288 | [6] -0.075 | [7] 0.016 | [8] -0.02 | IRAK-1-4 Inhibitor I -0.055

MSL1 (UniProt Q68DK7)
inactive: erlotinib 0.068 | [1] 0.036 | [2] 0.001 | [3] -0.034 | [4] 0.086 | [5] 0 | [6] -0.079 | [7] 0.05 | [8] -0.101 | IRAK-1-4 Inhibitor I 0.07

MRPL46 (UniProt Q9H2W6)
inactive: erlotinib -0.027 | [1] -0.01 | [2] -0.039 | [3] -0.124 | [4] -0.069 | [5] 0.023 | [6] 0.089 | [7] -0.009 | [8] -0.064 | IRAK-1-4 Inhibitor I 0.035

MTX1 (UniProt Q13505)
inactive: erlotinib -0.009 | [1] -0.035 | [2] 0.021 | [3] -0.028 | [4] 0.015 | [5] -0.009 | [6] -0.006 | [7] 0.005 | [8] 0.009 | IRAK-1-4 Inhibitor I 0.024

MSH2 (UniProt P43246)
inactive: erlotinib 0.003 | [1] 0.018 | [2] -0.028 | [3] 0.028 | [4] 0.013 | [5] 0.017 | [6] -0.019 | [7] -0.01 | [8] 0.012 | IRAK-1-4 Inhibitor I -0.009

MSH6 (UniProt P52701)
inactive: erlotinib 0.011 | [1] 0.03 | [2] -0.023 | [3] 0.031 | [4] 0.041 | [5] 0.008 | [6] -0.025 | [7] 0 | [8] -0.014 | IRAK-1-4 Inhibitor I -0.008

MTA1 (UniProt Q13330)
inactive: erlotinib 0.006 | [1] 0 | [2] 0.013 | [3] 0.017 | [4] -0.036 | [5] 0 | [6] -0.035 | [7] 0.002 | [8] -0.008 | IRAK-1-4 Inhibitor I 0.015

MRPL9 (UniProt Q9BYD2)
inactive: erlotinib 0.074 | [1] -0.088 | [2] -0.015 | [3] 0.028 | [4] -0.016 | [5] 0.027 | [6] 0.005 | [7] -0.074 | [8] 0.022 | IRAK-1-4 Inhibitor I 0.003

MRPL48 (UniProt Q96GC5)
inactive: erlotinib -0.007 | [1] 0.052 | [2] -0.032 | [3] 0.011 | [4] -0.005 | [5] 0 | [6] 0.03 | [7] -0.015 | [8] -0.026 | IRAK-1-4 Inhibitor I -0.032

MRPS35 (UniProt P82673)
inactive: erlotinib 0.025 | [1] -0.12 | [2] 0.009 | [3] 0.021 | [4] -0.024 | [5] 0.005 | [6] -0.044 | [7] -0.029 | [8] -0.065 | IRAK-1-4 Inhibitor I 0.04

MTCH1 (UniProt Q9NZJ7)
inactive: erlotinib -0.015 | [1] 0.032 | [2] -0.026 | [3] 0.006 | [4] -0.007 | [5] 0.007 | [6] 0.002 | [7] 0.013 | [8] 0.006 | IRAK-1-4 Inhibitor I -0.024

MTPN (UniProt P58546)
inactive: erlotinib -0.006 | [1] 0.018 | [2] -0.024 | [3] 0.023 | [4] -0.006 | [5] -0.034 | [6] -0.074 | [7] 0.003 | [8] 0.032 | IRAK-1-4 Inhibitor I -0.055

MRPS30 (UniProt Q9NP92)
inactive: erlotinib -0.002 | [1] 0.014 | [2] 0.047 | [3] -0.005 | [4] -0.089 | [5] 0.006 | [6] -0.1 | [7] -0.032 | [8] 0.062 | IRAK-1-4 Inhibitor I 0.003

MTHFR isoform 2 (UniProt P42898)
inactive: erlotinib -0.003 | [1] -0.145 | [2] -0.009 | [3] 0.069 | [4] -0.019 | [5] -0.024 | [6] 0.068 | [7] -0.012 | [8] -0.005 | IRAK-1-4 Inhibitor I -0.021

MRPS10 (UniProt P82664)
inactive: erlotinib -0.008 | [1] -0.066 | [2] 0.035 | [3] -0.023 | [4] -0.057 | [5] 0.04 | [6] -0.113 | [7] -0.034 | [8] 0.017 | IRAK-1-4 Inhibitor I 0.027

MRPL51 (UniProt Q4U2R6)
inactive: erlotinib -0.067 | [1] -0.05 | [2] -0.027 | [3] 0.08 | [4] -0.036 | [5] -0.039 | [6] 0.036 | [7] -0.006 | [8] -0.09 | IRAK-1-4 Inhibitor I 0.001

MTREX (UniProt P42285)
inactive: erlotinib -0.02 | [1] -0.012 | [2] -0.008 | [3] -0.002 | [4] 0.001 | [5] 0.008 | [6] -0.013 | [7] -0.025 | [8] -0.014 | IRAK-1-4 Inhibitor I 0

MTFR1L (UniProt Q9H019)
inactive: erlotinib -0.017 | [1] -0.024 | [2] -0.067 | [3] -0.048 | [4] 0.013 | [5] -0.034 | [6] -0.055 | [7] -0.041 | [8] -0.035 | IRAK-1-4 Inhibitor I 0.009

MT-ND2 (UniProt P03891)
inactive: erlotinib -0.025 | [1] 0.075 | [2] -0.154 | [3] -0.04 | [4] 0.02 | [5] -0.006 | [6] -0.035 | [7] 0.002 | [8] 0.02 | IRAK-1-4 Inhibitor I -0.028

MRPS24 (UniProt Q96EL2)
inactive: erlotinib -0.025 | [1] 0.153 | [2] 0.016 | [3] 0.049 | [4] -0.032 | [5] 0.012 | [6] 0.112 | [7] 0.056 | [8] -0.119 | IRAK-1-4 Inhibitor I -0.022

MRPS36 (UniProt P82909)
inactive: erlotinib -0.024 | [1] -0.081 | [2] 0.053 | [3] -0.007 | [4] -0.049 | [5] 0.01 | [6] -0.036 | [7] -0.034 | [8] 0.007 | IRAK-1-4 Inhibitor I 0.029

Pulled one by one from above (two):
MTHFR isoform 2 (UniProt P42898)
inactive: erlotinib -0.003 | [1] -0.145 | [2] -0.009 | [3] 0.069 | [4] -0.019 | [5] -0.024 | [6] 0.068 | [7] -0.012 | [8] -0.005 | IRAK-1-4 Inhibitor I -0.021

MSH2 (UniProt P43246)
inactive: erlotinib 0.003 | [1] 0.018 | [2] -0.028 | [3] 0.028 | [4] 0.013 | [5] 0.017 | [6] -0.019 | [7] -0.01 | [8] 0.012 | IRAK-1-4 Inhibitor I -0.009

(further entries)

MT-CYB (UniProt P00156)
inactive: erlotinib 0.076 | [1] 0.141 | [2] 0.027 | [3] 0.024 | [4] 0.015 | [5] -0.229 | [6] 0.126 | [7] -0.105 | [8] 0.025 | IRAK-1-4 Inhibitor I 0.028

MTDH (UniProt E5RJU9)
inactive: erlotinib 0.026 | [1] -0.009 | [2] 0.177 | [3] 0.057 | [4] -0.314 | [5] -0.014 | [6] -0.117 | [7] -0.192 | [8] 0.12 | IRAK-1-4 Inhibitor I 0.069

MRPL45 (UniProt Q9BRJ2)
inactive: erlotinib 0.033 | [1] 0.038 | [2] 0.027 | [3] 0.032 | [4] 0.035 | [5] -0.018 | [6] -0.04 | [7] -0.005 | [8] 0.011 | IRAK-1-4 Inhibitor I 0.069

MSH3 (UniProt P20585)
inactive: erlotinib -0.046 | [1] -0.021 | [2] 0.042 | [3] 0.011 | [4] -0.025 | [5] 0.007 | [6] -0.026 | [7] -0.038 | [8] 0.058 | IRAK-1-4 Inhibitor I 0.004

MRPS33 (UniProt Q9Y291)
inactive: erlotinib 0.047 | [1] -0.049 | [2] -0.034 | [3] 0.02 | [4] -0.07 | [5] -0.09 | [6] 0.018 | [7] 0.026 | [8] -0.017 | IRAK-1-4 Inhibitor I -0.159

MRPL4 (UniProt Q9BYD3)
inactive: erlotinib 0.105 | [1] -0.218 | [2] -0.027 | [3] -0.009 | [4] 0.023 | [5] -0.022 | [6] -0.061 | [7] 0.022 | [8] 0.02 | IRAK-1-4 Inhibitor I 0.014

MRPS5 (UniProt P82675)
inactive: erlotinib -0.019 | [1] 0.045 | [2] 0.016 | [3] -0.036 | [4] -0.051 | [5] -0.032 | [6] -0.005 | [7] 0.087 | [8] 0.038 | IRAK-1-4 Inhibitor I -0.037

MTO1 isoform 4 (UniProt Q9Y2Z2)
inactive: erlotinib -0.047 | [1] -0.115 | [2] -0.053 | [3] -0.044 | [4] -0.058 | [5] 0.067 | [6] 0.039 | [7] -0.075 | [8] 0.101 | IRAK-1-4 Inhibitor I 0.031
